Patent publication US20140363422A1 (IMMUNOQURE, published 2014)
Results are given in words; binding and its absence hold for the method and conditions named. Some binding calls cover weakened binding; strength is not graded here.

T1: human IL-22 (human, UniProt Q9GZX6 34-179)
T1 sequence (looked up): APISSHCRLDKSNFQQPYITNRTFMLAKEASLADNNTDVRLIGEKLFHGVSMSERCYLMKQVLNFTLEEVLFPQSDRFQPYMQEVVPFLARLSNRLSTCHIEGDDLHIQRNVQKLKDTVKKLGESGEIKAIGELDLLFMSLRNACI

T2: 74-179 aa
T2 sequence: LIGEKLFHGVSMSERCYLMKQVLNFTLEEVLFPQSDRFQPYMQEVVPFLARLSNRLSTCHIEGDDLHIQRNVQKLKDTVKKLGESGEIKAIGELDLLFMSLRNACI

T3: m17F (Mus musculus) (UniProt Q7TNI7)
T3 sequence (cytokine chain, looked up): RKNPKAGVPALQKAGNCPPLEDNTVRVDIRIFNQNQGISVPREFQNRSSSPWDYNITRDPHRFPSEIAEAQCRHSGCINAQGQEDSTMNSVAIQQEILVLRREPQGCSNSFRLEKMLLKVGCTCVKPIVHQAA

B1: IL-22 specific antibody 35G11 (antibody, human IgG4, lambda, V domains shown)
VH: QVQLVQSGSELRRPGASVNISCKASGYGFNTYAMNWVRQAPGQGPEWMGWINTDTGDPTYAQGFTGRFAFFLDTSASTAFLQITRLTGEDTAVYFCARTRNNWNGVYYHYSGLDVWGQGTTVTVSS
VL: QSVLTQPPSASGTPGQTVTISCSGSSPNLGDNYVYWYHQVPGTAPKLLIFRNTQRPSGVTDRFSGSKYGTSASLAISDLRSDDEGDFYCASWDDRLSRLVFGGGTKLTVLG
notes: also called a-IL-22-35G11; aIL-22 35G11
B2: IL-22 specific antibody 51G4 (antibody, human IgG2, lambda, V domains shown)
VH: EVQLVQSGAEVKKPGASVKVSCKTSGYKFALYDIHWVRQAPGQGLEWMGWINAANGDTEYSQKFEGRVTITRDTSATTVYMELNSLTYGDTAVYYCAREEGLYNWFDPWGQGTLVTVSS
VL: SYELTQDPAVSVALGQTVRITCQGDSLRIYYANWYQQKPGQAPVLVIYGKSNRPSGIPDRFSASSSGNTASLTITGAQAEDEADYYCNSRDSSDKHPVPFGGGTKLTVLS
notes: also called a-IL-22-51G4
B3: IL-17F specific antibody 9A2 (antibody, human IgG1, kappa, V domains shown)
VH: EVQLEESGGGLVQPGGSLRLSCAASGFPFSNYEMNWVRQAPGKGLEWISYISVSGGPAHYADSVKGRFTISRDDATKSLFLQMNRLRADDTAVYYCVRREYVTGRNYNYYPYMDVWGTGTTVTVSP
VL: DIQMTQSPSSLSASVGDRVTITCRASQTISDYLNWYQHKPGEAPKLLIYSASTLQRGVPSRFSGSGSGTDFVFTISSLQSDDFATYYCQQTSSTALTFGGGTKVEVKR
notes: also called a-IL17-9A2

Assays:
human IL-22 [1] = target: T1, human IL-22; assay: ELISA binding
human IL-22 [2] = target: T1, human IL-22; assay: SPR (ProteOn XPR36)
human IL-22 [3] = target: T1, human IL-22; assay: SPR (ProteOn XPR36), figure legend
human IL-22 [4] = target: T1, human IL-22; assay: sandwich ELISA: h antibody coated, IL-22 captured, detection with hm antibody
human IL-22 [5] = target: T1, human IL-22; assay: ELISA on coated IL-22, antibody with mouse Fc (hm) detected by HRP-conjugated secondary antibody
74-179 aa = target: T2, 74-179 aa; assay: luciferase immunoprecipitation (LIPS) with crude extract of HEK 293 cells expressing the luciferase fusion
human IL-22 [6] = target: T1, human IL-22; assay: PepStar peptide microarray with co-spotted full-length IL-22, fluorescently labelled anti-Fc secondary antibody
human IL-22 [7] = target: T1, human IL-22; assay: SPR (ProteOn XPR36), antibody captured by anti-human IgG, IL-22 injected at 100, 33.33, 11.11, 3.70, 1.23 and 0 nM
m17F (Mus musculus) = target: T3, m17F (Mus musculus); assay: ELISA, titration of antibody 9A2 on recombinant murine IL17F

Binder | binding (human IL-22 [1]) | binding (human IL-22 [2]) | binding (human IL-22 [3]) | binding (human IL-22 [4]) | binding (human IL-22 [5]) | binding (74-179 aa) | binding (human IL-22 [6]) | binding (human IL-22 [7]) | binding (m17F (Mus musculus))
B1 | binds | binds | binds | binds | binds | binds | binds | binds | 
B2 | binds |  |  | binds | binds |  | binds |  | 
B3 |  |  |  |  |  |  |  |  | no binding (tested: 1 µg/ml)
